# Drug screen on melanoma cell lines: cell count

Data from the primary screen of doi:10.1371/journal.pone.0140310, rounded.

Compounds and concentrations:
tamatinib: COc1cc(Nc2ncc(F)c(Nc3ccc4c(n3)NC(=O)C(C)(C)O4)n2)cc(OC)c1OC at 2000 nM
erlotinib: C#Cc1cccc(Nc2ncnc3cc(OCCOC)c(OCCOC)cc23)c1 at 4000 nM
cediranib: COc1cc2c(Oc3ccc4[nH]c(C)cc4c3F)ncnc2cc1OCCCN1CCCC1 at 2000 nM
midostaurin: CO[C@@H]1[C@H](N(C)C(=O)c2ccccc2)C[C@H]2O[C@]1(C)n1c3ccccc3c3c4c(c5c6ccccc6n2c5c31)C(=O)NC4 at 400 nM
SNS-032: CC(C)(C)c1cnc(CSc2cnc(NC(=O)C3CCNCC3)s2)o1 at 50 nM
bortezomib: CC(C)C[C@H](NC(=O)[C@H](Cc1ccccc1)NC(=O)c1cnccn1)B(O)O at 5 nM
embelin: CCCCCCCCCCCC1=C(O)C(=O)C=C(O)C1=O at 6000 nM
perifosine: CCCCCCCCCCCCCCCCCCOP(=O)([O-])OC1CC[N+](C)(C)CC1 at 2000 nM
GW9662: O=C(Nc1ccccc1)c1cc([N+](=O)[O-])ccc1Cl at 10000 nM
RKI-983: C[C@@H](N)c1ccc(C(=O)Nc2ccnc3[nH]ccc23)cc1 at 2000 nM
XAV939: Oc1nc(-c2ccc(C(F)(F)F)cc2)nc2c1CSCC2 at 10000 nM
vatalanib: Clc1ccc(Nc2nnc(Cc3ccncc3)c3ccccc23)cc1 at 10000 nM

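Human melanoma cells were exposed to a pair of drugs for 72 h in 1,536-well plates and read by automated microscopy after fixing and staining. Each value is the count of nuclei relative to DMSO-treated wells, in %, so that 100 equals the control. Every drug was used at one fixed concentration, the higher of two screened. No replicate spread is given; individual values may be noisy.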 Only some of the drugs and lines screened are listed, without regard to their results. A dash means that no value is listed here.

Combination	C32	COLO 792	COLO 800	A2058	WM451Lu	501mel	COLO 829	A375	A101D	WM3619
RKI-983 and tamatinib	57.9	18.2	60.0	45.2	-	-	86.5	101	11.7	-
erlotinib and midostaurin	-	-	-	-	77.7	-	-	-	-	54.6
midostaurin and XAV939	81.2	45.7	29.4	-	73.1	-	82.8	-	-	52.5
XAV939 and cediranib	-	-	-	-	94.1	-	-	-	-	63.9
SNS-032 and perifosine	-	76.3	-	-	-	-	-	-	-	-
bortezomib and midostaurin	18.5	23.8	32.0	-	20.5	-	17.1	-	-	4.0
perifosine and cediranib	-	78.1	-	-	102	-	-	-	-	112
tamatinib and erlotinib	-	-	-	-	96.2	-	-	-	-	80.3
SNS-032 and embelin	-	-	-	-	80.5	-	-	-	-	74.2
vatalanib and RKI-983	-	54.5	-	-	74.2	-	-	-	-	69.6
vatalanib and cediranib	84.7	68.2	48.6	-	78.0	-	82.9	-	-	66.5
GW9662 and midostaurin	64.0	57.1	49.4	-	63.2	-	55.2	-	-	51.6
RKI-983 and XAV939	80.9	49.7	92.5	55.5	87.8	82.2	95.5	83.7	78.2	69.8
vatalanib and bortezomib	23.9	21.4	39.5	-	18.6	-	2.9	-	-	2.5
tamatinib and vatalanib	-	26.2	-	-	57.7	-	-	-	-	57.3
embelin and tamatinib	97.7	45.9	47.6	-	77.5	-	86.4	-	-	55.9
GW9662 and vatalanib	81.8	60.2	42.4	-	72.8	-	47.9	-	-	42.8
RKI-983 and midostaurin	78.6	64.0	42.5	40.7	51.7	-	52.9	97.1	43.7	-
GW9662 and SNS-032	-	-	-	-	59.3	-	-	-	-	56.6
SNS-032 and RKI-983	69.8	61.3	63.3	46.7	-	-	97.1	105	62.7	-
cediranib and GW9662	-	103	-	-	-	-	-	-	-	-
perifosine and erlotinib	84.0	48.0	85.5	64.9	94.0	-	65.7	95.7	62.3	80.7
tamatinib and midostaurin	-	-	-	-	57.0	-	-	-	-	47.0
bortezomib and GW9662	-	-	-	-	21.0	-	-	-	-	-
embelin and GW9662	119	71.4	136	-	83.4	-	57.6	-	-	57.2
perifosine and tamatinib	-	38.8	-	-	52.4	-	-	-	-	89.5
cediranib and SNS-032	-	-	-	-	58.7	-	-	-	-	93.4
erlotinib and embelin	99.5	30.7	43.3	-	72.1	-	54.3	-	-	81.5
perifosine and vatalanib	114	77.4	82.0	114	111	-	100	95.8	113	69.5
tamatinib and bortezomib	19.0	15.5	28.2	-	26.3	-	15.3	-	-	6.9
RKI-983 and cediranib	-	42.7	-	-	-	-	-	-	-	-

The first 4 entries again:

Combination,C32,COLO 792,COLO 800,A2058,WM451Lu,501mel,COLO 829,A375,A101D,WM3619
RKI-983 and tamatinib,57.9,18.2,60.0,45.2,-,-,86.5,101,11.7,-
erlotinib and midostaurin,-,-,-,-,77.7,-,-,-,-,54.6
midostaurin and XAV939,81.2,45.7,29.4,-,73.1,-,82.8,-,-,52.5
XAV939 and cediranib,-,-,-,-,94.1,-,-,-,-,63.9